From patent US20070003636A1, “Statins (HMG-COA reductase inhibitors) as a novel type of immunomodulator, immunosuppressor and anti-inflammatory agent” (priority 2003, published 2007)
For at least one compound, name, drawing or mass did not settle the structure.

Tests used:
CD40 mediated pathways = test: CD40L induced cytokine release (IL-6, IL-8, MCP-1) from ECs, ELISA; assay type: cell-based, human; details: ELISA after 24 hrs
Method: Cytokines assay. […] Experiments were performed in the presence of polymyxin B (1 μg/ml). Antibody binding was detected by adding substrate (R&D), and absorbance measured at 450 nm using a Dynatech plate reader. The amount of IL-6, IL-8 and MCP-1 detected was calculated from a standard curve prepared with the recombinant protein. Samples were assayed in duplicates.
To investigate the functional consequences of inhibition of CD40 expression by statins on Endothelial Cells activation by CD40L, secreted cytokines were analyzed such as Interleukin-6 (IL-6), interleukin-8 (IL-8), macrophages chemoattractant protein-1 (MCP-1). Addition of an anti-CD40LmAb blocked the induction of all three secreted cytokines in response to CD40 ligation.

CD40 = test: IFN-γ induced CD40 expression on vascular endothelial cells (Western blot); assay type: cell-based, human; details: ECs, IFN-γ 500 U/ml, 24 hrs, Western blotting
Source text: Cell isolation and culture. […] Human vascular smooth muscle (SMCs) cells were isolated from human saphenous veins and mammary arteries by explant outgrowth, and cultured in DMEM (BioWhittaker) supplemented with 1% L-glutamine (BioWhittaker), 1% penicillin/streptomycin, and 10% FCS. Both cell types were subcultured following trypsinization (0.5% trypsin (Worthington Biochemicals)/0.2% EDTA (EM Science)) in P100-culture dishes (Becton Dickinson).
Western blots analysis. Cells were harvested in ice-cold RIPA solubilization buffer, and total amounts of protein were determined using a bicinchoninic acid quantification assay (Pierce, Rockford, Ill.). Twenty μg of total protein/lane were separated by SDS/PAGE under reducing conditions and blotted to polyvinylidene difluoride membranes (Millipore Corp., Bedford, Mass.) using a semidry blotting apparatus (Bio-Rad, Hercules, Calif.). Blots were blocked overnight in 5% defatted dry milk/PBS/0.1% Tween, and then incubated for 1 hour at room temperature with primary antibody (1:40) (rabbit […] anti-CD40 Santa Cruz, San Diego, Calif.), or mouse monoclonal anti-human […] (1:5000) (Pharmingen) for control of loading. […] Immunoreactivity was detected using the enhanced chemiluminescence detection method according to the manufacturer's instructions. […] Analysis of quantification of detection was performed using AIDA software.

Row | Compound | cytokine secretion (IL-6, IL-8, MCP-1) (CD40 mediated pathways) | CD40 expression with co-treatment by IFN-γ and statin (CD40)
1 | CCC(C)(C)C(=O)O[C@H]1C[C@@H](C)C=C2C=C[C@H](C)[C@H](CC[C@@H]3C[C@@H](O)CC(=O)O3)[C@H]21 [Simvastatin] | largely reduces the secretion | decreased
2 | CC[C@H](C)C(=O)O[C@H]1C[C@H](O)C=C2C=C[C@H](C)[C@H](CC[C@@H](O)C[C@@H](O)CC(=O)O)[C@H]21 [pravastatin, Pravastatin] |  | decreased
